Among the data in US20200093909A1 are binding values, retold here.

The target of assay [1] is circumsporozoite protein (CSP) on the surface of intact P. falciparum sporozoites (Plasmodium falciparum) (UniProt P19597). Nature of the assay: flow cytometry staining of SYBR Green I labelled sporozoites.
Assay [2] has as its target NANP-peptide (Plasmodium falciparum). Nature of the assay: ELISA, peptide coated, titrated antibody.

These are yes or no findings as the source states them, for the method shown. Some binding calls cover weakened binding; strength is not graded here.

B1: MGH3 (antibody, V domains shown)
VH: EVQLVESGGGLVKPGGSLRLSCAASGFTFSSYTMNWVRQAPGKGLEWVSSISSSGSYIYYADSVKGRCTISRDNAKNSLDLQMNSLRAEDAAVYYCARNVLDSSGYPTYFDYWGQGTLVTVSS
VL: DIVMTQSPLSLPVTPGEPASISCRSSQSLLYSNGYNYLDWYVQKPGQSPRLLIYLGSNRASGVPDRFSGSGSGTDFTLRISRVEAEDVGFYYCMQAVQTPLTFGGGTKVEIK
As for B1, the binding entry in assay [1] is “binds”.

B2: MGU11 (antibody, V domains shown)
VH: QVQLVESGGGVVQPGRSLRLSCVASGFSFSSYGMHWVRQAPGKGLEWVAVIWYDGTNKYYADSVKGRFTISRDNTKNTLYLQMNSLRADDTAMYYCANDIAGWGYDGSNAWGQGTLVTVSS
VL: LSLPVTPGQPASISCKSSQSLVYSDGNTYLNWFQQRPGQSPRRLIYKVSNRDSGVPDRFSGSGSGTDFTLKISRVEAEDVGVYYCMQGTVGFTFGPGTTVDIK
For the molecule B2, the binding entry in assay [2] is given as “binds”.
